Source: US20260266848A1, “COMPOSITIONS AND METHODS FOR DIAGNOSING AND TREATING DYSTONIA” (Duke University, priority 2023, published 2026)

How the values were obtained:
Format in all cases: cell-based, mouse
DYT-TOR1A MEF EVs [1] = test: Quantitative LC-MS/MS proteomics of EVs from drug-treated DYT-TOR1A MEF cultures (ritonavir, salubrinal); conditions: for DYT1/DYT1 + RTV: Directionality of protein change in MEFs EV dataset in DYT1 derived MEFs treated with Ritonavir; for RTV Corrective Direction: Ritonavir; for RTV Corrective Direction / Sal Corrective Direction: was treatment in MEF's in the direction of WT-like?; for Sal Corrective Direction: Salubrinal
WT MEF EVs = test: Quantitative LC-MS/MS proteomics of EVs from ISRIB-treated WT MEF cultures; conditions: Directionality of protein change in MEFs EV dataset in WT derived MEFs treated with ISRIB
DYT-TOR1A MEF EVs [2] = test: Quantitative LC-MS/MS proteomics of MEF EVs, DYT-TOR1A genotype vs WT; conditions: Directionality of protein change in MEFs EV dataset between WT and DYT1 derived MEFs

Row | Molecule | DYT1/DYT1 + RTV (DYT-TOR1A MEF EVs [1]) | RTV Corrective Direction (DYT-TOR1A MEF EVs [1]) | Sal Corrective Direction (DYT-TOR1A MEF EVs [1]) | WT + ISRIB/WT (WT MEF EVs) | DYT1/WT (DYT-TOR1A MEF EVs [2])
1 | Psmd12 (protein, UniProt Q9D8W5 2-456, looked up) 26S proteasome non-ATPase …: ADGGSERADGRIVKMEVDYSATVDQRLPECEKLAKEGRLQEVIETLLSLEKQTRTASDMVSTSRILVAVVKMCYEAKEWDLLNENIMLLSKRRSQLKQAVAKMVQQCCTYVEEITDLPVKLRLIDTLRMVTEGKIYVEIERARLTKTLATIKEQNGDVKEAASILQELQVETYGSMEKKERVEFILEQMRLCLAVKDYIRTQIISKKINTKFFQEENTENLKLKYYNLMIQLDQHEGSYLSICKHYRAIYDTPCIQAESDKWQQALKSVVLYVILAPFDNEQSDLVHRISSDKKLEEIPKYKDLLKLFTTMELMRWSTLVEDYGVELRKGSSETPATDVFSSTEEGEKRWKDLKSRVVEHNIRIMAKYYTRITMKRMAQLLDLSVDESEAFLSNLVVNKTIFAKVDRLAGVINFQRPKDPNNLLNDWSQKLNSLMSLVNKTTHLIAKEEMIHNLQ | DOWN | Yes | No | DOWN | DOWN
2 | Hist1h1b (protein, UniProt P43276 2-223, looked up) Histone H1.5: SETAPAETAAPAPVEKSPAKKKTTKKAGAAKRKATGPPVSELITKAVSASKERGGVSLPALKKALAAGGYDVEKNNSRIKLGLKSLVSKGTLVQTKGTGASGSFKLNKKAASGEAKPKAKKTGAAKAKKPAGATPKKPKKTAGAKKTVKKTPKKAKKPAAAGVKKVAKSPKKAKAAAKPKKAAKSPAKPKAVKSKASKPKVTKPKTAKPKAAKAKKAVSKKK | DOWN | Yes | No | DOWN | DOWN
3 | Mars (protein, UniProt Q68FL6 1-902, looked up) Methionine--tRNA ligase, …: MRLFVSEGSPGSLPVLAAAARARGRAELLISTVGPEECVVPFLTRPKVPVLQLDSGNYLFSASAICRYFFLLCGWEQDDLTNQWLEWEATELQPVLSAALHCLVVQGKKGEDILGPLRRVLTHIDHSLSRQNCPFLAGDTESLADIVLWGALYPLLQDPAYLPEELGALQSWFQTLSTQEPCQRAAETVLKQQGVLALRLYLQKQPQPQPPPPEGRTVSNELEEEELATLSEEDIVTAVAAWEKGLESLPPLKLQQHPVLPVPGERNVLITSALPYVNNVPHLGNIIGCVLSADVFARYCRLRQWNTLYLCGTDEYGTATETKAMEEGLTPREICDKYHAIHADIYRWFGISFDTFGRTTTPQQTKITQDIFQRLLTRGFVLRDTVEQLRCERCARFLADRFVEGVCPFCGYEEARGDQCDRCGKLINAIELKKPQCKICRSCPVVRSSQHLFLDLPKLEKRLEDWLGKTVPGSDWTPNARFIIRSWLRDGLKPRCITRDLKWGTPVPLEGFEDKVFYVWFDATIGYVSITANYTDQWEKWWKNPEQVDLYQFMAKDNVPFHGLVFPCSVLGAEDNYTLVKHIIATEYLNYEDGKFSKSRGIGVFGDMAKDTGIPADIWRFYLLYIRPEGQDSAFSWTDLLIKNNSELLNNLGNFINRAGMFVSKFFGGCVPEMALTPDDRRLVAHVSWELQHYHQLLEKVRIRDALRSILTISRHGNQYIQVNEPWKRIKGGEMDRQRAGTVTGMAVNMAALLSVMLQPYMPTVSSTIQTQLQLPPAACRILATSFICTLPAGHRIGTVSPLFQKLENDQIENLRQRFGGGQAKGSPKPAAVEAVTAAGSQHIQTLTDEVTKQGNVVRELKAQKADKNQVAAEVAKLLDLKKQLALAEGKPIETPKGKKKK | DOWN | Yes | No | DOWN | DOWN
4 | Lipg (protein, UniProt Q9WVG5 21-500, looked up) Endothelial lipase: SITTLRPQGSLRDEHHKPTGVPATARPSVAFNIRTSKDPEQEGCNLSLGDSKLLENCGFNMTAKTFFIIHGWTMSGMFESWLHKLVSALQMREKDANVVVVDWLPLAHQLYTDAVNNTRVVGQRVAGMLDWLQEKEEFSLGNVHLIGYSLGAHVAGYAGNFVKGTVGRITGLDPAGPMFEGVDINRRLSPDDADFVDVLHTYTLSFGLSIGIRMPVGHIDIYPNGGDFQPGCGFNDVIGSFAYGTISEMVKCEHERAVHLFVDSLVNQDKPSFAFQCTDSSRFKRGICLSCRKNRCNNIGYNAKKMRKKRNSKMYLKTRAGMPFKVYHYQLKVHMFSYNNSGDTQPTLYITLYGSNADSQNLPLEIVEKIELNATNTFLVYTEEDLGDLLKMRLTWEGVAHSWYNLWNEFRNYLSQPSNPSRELYIRRIRVKSGETQRKVTFCTQDPTKSSISPGQELWFHKCQDGWKMKNKTSPFVNLA | DOWN | Yes | No | DOWN | DOWN
